HELM strings list residues between dots; [ac] is acetyl, [am] amide, other brackets name non-standard units.
test: solid-phase peptide synthesis; conditions: whole synthesis

First: PEPTIDE1{[ac].[dNal].[dpClPhe].[dPal].S.Y.[dCit].[Npg].R.P.[dA].[am]}$$$$V2.0
Second: PEPTIDE1{[pE].H.W.S.Y.[dA].[Npg].R.P.[NEt]}$$$$V2.0
The “final HPLC purity” value of the first is higher: 97.0% for the first, 96.9% for the second.

Compared with “PEPTIDE1{[pE].H.W.S.Y.G.[Npg].R.P.[NEt]}$$$$V2.0”, “PEPTIDE1{[pE].H.W.S.Y.[dW].[Npg].R.P.G.[am]}$$$$V2.0” is higher in “final HPLC purity” value: 95.0% for the first, 97.1% for the second.

Going from “PEPTIDE1{[pE].H.W.S.Y.[dL].[Npg].R.P.G.[am]}$$$$V2.0” to “PEPTIDE1{[ac].[D-Nal].[D-pClPhe].[D-Pal].S.[NicLys].[D-NicLys].[Npg].[IprLys].P.[dA].[am]}$$$$V2.0”, the “final HPLC purity” value rises from 95.7% to 98.3%.

Going from “pGlu-His-1Nal-Ser-Tyr-D-Leu-Npg-Arg-Pro-NEt” to “PEPTIDE1{[pE].H.W.S.Y.[dNpg].[Npg].R.P.G.[am]}$$$$V2.0”, the “final HPLC purity” value falls from 98.5% to 97.8%.

Compared with “PEPTIDE1{[pE].H.W.S.Y.[dA].[Npg].R.P.G.[am]}$$$$V2.0”, “AcD-Nal-D-pClPhe-D-Pal-Ser-Tyr-D-HCit-Npg-IprLys-Pro-D-Ala-NH2” is higher in “final HPLC purity” value: 95.2% for the first, 95.7% for the second.

Going from “PEPTIDE1{[pE].H.W.S.Y.[dF].[Npg].R.P.G.[am]}$$$$V2.0” to “pGlu-His-Trp-Ser-Tyr-D-Trp-Ada-Arg-Pro-Gly-NH2”, the “final HPLC purity” value falls from 96.8% to 95.0%.

First: PEPTIDE1{[pE].H.W.S.Y.[dL].[Npg].R.P.[NEt]}$$$$V2.0
Second: PEPTIDE1{[pE].H.W.S.Y.[dW].[Npg].R.P.[NEt]}$$$$V2.0
The “final HPLC purity” value of the first is lower: 95.3% for the first, 98.4% for the second.

First: pGlu-His-2Nal-Ser-Tyr-D-Leu-Npg-Arg-Pro-NEt
Second: PEPTIDE1{[ac].[dNal].[dpClPhe].[dPal].S.Y.[dCit].[Npg].[IprLys].P.[dA].[am]}$$$$V2.0
The “final HPLC purity” value of the first is higher: 98.0% for the first, 96.4% for the second.

Compared with “pGlu-His-Trp-Ser-Tyr-D-Pal-Npg-Arg-Pro-Gly-NH2”, “pGlu-His-Trp-Ser-Tyr-D-Leu-Ada-Arg-Pro-NEt” is lower in “final HPLC purity” value: 98.6% for the first, 97.3% for the second.

First: pGlu-His-Trp-Ser-Tyr-D-4Pal-Npg-Arg-Pro-Gly-NH2
Second: pGlu-His-Trp-Ser-Tyr-D-HPhe-Npg-Arg-Pro-Gly-NH2
The “final HPLC purity” value of the first is higher: 98.4% for the first, 97.5% for the second.

Going from “PEPTIDE1{[pE].H.W.S.Y.G.[Npg].R.P.G.[am]}$$$$V2.0” to “PEPTIDE1{[pE].H.W.S.Y.[dNpg].[Npg].R.P.[NEt]}$$$$V2.0”, the “final HPLC purity” value falls from 97.2% to 96.2%.

“pGlu-His-Trp-Ser-Tyr-D-Ala-Ada-Arg-Pro-NEt” and “pGlu-His-Bal-Ser-Tyr-D-Leu-Npg-Arg-Pro-NEt” are the same in “final HPLC purity” value: 97.4% for the first, 97.4% for the second.

Going from “pGlu-His-Trp-Ser-Tyr-D-Phe-Ada-Arg-Pro-NEt” to “PEPTIDE1{[pE].H.W.S.Y.[dNal].[Npg].R.P.G.[am]}$$$$V2.0”, the “final HPLC purity” value falls from 97.8% to 95.6%.

First: PEPTIDE1{[pE].H.W.S.Y.[dF].[Npg].R.P.[NEt]}$$$$V2.0
Second: PEPTIDE1{[pE].H.W.S.Y.[dNal].[Npg].R.P.[NEt]}$$$$V2.0
The “final HPLC purity” value of the first is lower: 96.9% for the first, 97.4% for the second.

In the case of “pGlu-His-Trp-Ser-Tyr-D-Leu-MeNpg-Arg-Pro-NEt”, the “final HPLC purity” value is reported as 95.0%.

First: PEPTIDE1{[ac].[dNal].[dpClPhe].[dPal].S.Y.[dCit].[Npg].R.P.[dA].[am]}$$$$V2.0
Second: PEPTIDE1{[pE].H.W.S.Y.[dA].[Npg].R.P.[NEt]}$$$$V2.0
The isolated yield of the first is higher: 9% for the first, 7% for the second.

Compared with “PEPTIDE1{[pE].H.W.S.Y.G.[Npg].R.P.[NEt]}$$$$V2.0”, “PEPTIDE1{[pE].H.W.S.Y.[dW].[Npg].R.P.G.[am]}$$$$V2.0” is lower in isolated yield: 8% for the first, 7% for the second.

First: PEPTIDE1{[pE].H.W.S.Y.[dL].[Npg].R.P.G.[am]}$$$$V2.0
Second: PEPTIDE1{[ac].[D-Nal].[D-pClPhe].[D-Pal].S.[NicLys].[D-NicLys].[Npg].[IprLys].P.[dA].[am]}$$$$V2.0
The isolated yield of the first is higher: 36% for the first, 31% for the second.

Compared with “pGlu-His-1Nal-Ser-Tyr-D-Leu-Npg-Arg-Pro-NEt”, “PEPTIDE1{[pE].H.W.S.Y.[dNpg].[Npg].R.P.G.[am]}$$$$V2.0” is lower in isolated yield: 7% for the first, 4% for the second.

Going from “PEPTIDE1{[pE].H.W.S.Y.[dA].[Npg].R.P.G.[am]}$$$$V2.0” to “AcD-Nal-D-pClPhe-D-Pal-Ser-Tyr-D-HCit-Npg-IprLys-Pro-D-Ala-NH2”, the isolated yield falls from 27% to 17%.

First: PEPTIDE1{[pE].H.W.S.Y.[dF].[Npg].R.P.G.[am]}$$$$V2.0
Second: pGlu-His-Trp-Ser-Tyr-D-Trp-Ada-Arg-Pro-Gly-NH2
The isolated yield of the first is higher: 16% for the first, 11% for the second.

Going from “PEPTIDE1{[pE].H.W.S.Y.[dL].[Npg].R.P.[NEt]}$$$$V2.0” to “PEPTIDE1{[pE].H.W.S.Y.[dW].[Npg].R.P.[NEt]}$$$$V2.0”, the isolated yield falls from 20% to 5%.

First: pGlu-His-2Nal-Ser-Tyr-D-Leu-Npg-Arg-Pro-NEt
Second: PEPTIDE1{[ac].[dNal].[dpClPhe].[dPal].S.Y.[dCit].[Npg].[IprLys].P.[dA].[am]}$$$$V2.0
The isolated yield of the first is lower: 7% for the first, 29% for the second.

Going from “pGlu-His-Trp-Ser-Tyr-D-Pal-Npg-Arg-Pro-Gly-NH2” to “pGlu-His-Trp-Ser-Tyr-D-Leu-Ada-Arg-Pro-NEt”, the isolated yield falls from 29% to 15%.

Compared with “pGlu-His-Trp-Ser-Tyr-D-HPhe-Npg-Arg-Pro-Gly-NH2”, “PEPTIDE1{[pE].H.W.S.Y.G.[Npg].R.P.G.[am]}$$$$V2.0” is lower in isolated yield: 36% for the first, 24% for the second.

Compared with “PEPTIDE1{[pE].H.W.S.Y.[dNpg].[Npg].R.P.[NEt]}$$$$V2.0”, “pGlu-His-Trp-Ser-Tyr-D-Ala-Ada-Arg-Pro-NEt” is higher in isolated yield: 4% for the first, 24% for the second.

Going from “pGlu-His-Bal-Ser-Tyr-D-Leu-Npg-Arg-Pro-NEt” to “pGlu-His-Trp-Ser-Tyr-D-Phe-Ada-Arg-Pro-NEt”, the isolated yield falls from 16% to 14%.

Compared with “PEPTIDE1{[pE].H.W.S.Y.[dNal].[Npg].R.P.G.[am]}$$$$V2.0”, “PEPTIDE1{[pE].H.W.S.Y.[dF].[Npg].R.P.[NEt]}$$$$V2.0” is lower in isolated yield: 50% for the first, 4% for the second.

First: PEPTIDE1{[pE].H.W.S.Y.[dNal].[Npg].R.P.[NEt]}$$$$V2.0
Second: pGlu-His-Trp-Ser-Tyr-D-Leu-MeNpg-Arg-Pro-NEt
The isolated yield of the first is higher: 22% for the first, 17% for the second.

From patent US6586402B1 (Laboratoire Theramex, priority 1997, dated 2003)
